According to patent US9392791B2, “Amide compound and use thereof for pest control” (Sumitomo Chemical Company, priority 2012, dated 2016):
Some of these results come from one statement about several compounds together. For at least one compound, name, drawing or mass did not settle the structure.

Experiments:
Assay type in all cases: in vivo
Culex pipiens pallens = test: Test Example 10: Culex pipiens pallens last-instar larvae in treated water; conditions: active ingredient concentration 3.5 ppm in ion-exchanged water, one day later
Plutella xylostella = test: Test Example 6: spray on cabbage, Plutella xylostella larvae released; conditions: 500 ppm, 20 mL/cup sprayed on cabbage, second instar larvae, 25° C. for 5 days
[1] = system: Adoxophyes orana fasciata; test: Test Example 7: spray on apple tree, Adoxophyes orana fasciata released; conditions: 500 ppm, 20 mL/cup sprayed on apple tree, first-instar, after 7 days

SMILES	mortality (Culex pipiens pallens) [%]	mortality (Plutella xylostella) [%]	mortality [1] [%]
CCS(=O)(=O)c1ccccc1C(=O)N(C)c1ccc(S(=O)(=O)C(F)(F)F)cn1 [compound 17]	≥ 91		
CCSc1cc(C(F)(F)F)ccc1C(=O)Nc1ccc(C(F)(F)F)cn1 [M6-5]		≥ 80	≥ 90
CCS(=O)(=O)c1cc(C(F)(F)F)ccc1C(=O)Nc1ccc(C(F)(F)F)cn1 [M6-7]			≥ 90
CC[S+]([O-])c1cc(C(F)(F)F)ccc1C(=O)Nc1ccc(C(F)(F)F)cn1 (stereo not shown) [M6-8]			≥ 90
CC[S+]([O-])c1cc(C(F)(F)F)ccc1C(=O)N(C)c1ccc(SC(F)(F)F)cn1 (stereo not shown) [compound 21]	≥ 91		
CC[S+]([O-])c1cc(C(F)(F)F)ccc1C(=O)N(C)c1ccc(C(F)(F)C(F)(F)F)cn1 (stereo not shown) [compound 20]	≥ 91		
